{
  "source": "patent US20220062165A1",
  "about": "“COMPOSITIONS AND METHODS FOR INTRANASAL DELIVERY OF PREGNENOLONE” (M et P Pharma AG, priority 2018, published 2022)",
  "system": "extracellular acetylcholine levels in the amygdala",
  "assay": "In vivo microdialysis after lateralized intranasal administration (one nostril), amygdala",
  "set-up": "species or system rat",
  "details": "11.2 mg/mL, 5 μl one nostril",
  "description": "Subjects. A total number of 10 adult male Wistar rats 3-4 months of age and weighting between 400 and 500 grams, at the time of surgery, were obtained from the local animal facility (Tierversuchsanlage, University of Dusseldorf, Germany). They were grouped 4 per cage (Makrolon cage, type IV, 60.0×20.0×38.0 centimeter), and separated into individual cases after the surgery. They were housed under a reversed light-dark cycle (light off from 7 after midnight (AM) to 7 post meridiem (PM)), with free access to food and water. […] After two weeks of adaptation, animals underwent microdialysis as described below. All experiments were carried out in accordance with the European Communities Council Directive (86/609/EEC) on animal welfare, and approved by the German Animal Protection Law Authorities—LANUV Nordrhein-Westfalen.\nSurgery. Rats underwent implantation of microdialysis probes into specific brain areas. They were anesthetized with a mixture of ketamine hydrochloride (90.0 milligram/kilogram (mg/kg); Pharmacia & Upjohn) and xylazine hydrochloride (8.0 mg/kg; Bayer) and placed in a stereotaxic frame (David Kopf Instruments). Additionally, Bupivacaine (2.5 milligram/milliliter(mg/mL), injection volume 0.1 milliliter (mL) above the skull; Bucain, Deltaselect HmbH) was applied as a local anesthetic. Two guide cannulae (14 millimeter (mm) long, 26 gauge) for microdialysis probes were implanted in both the right and left amygdala (Anteriorposterior (AP):—2.5 mm; Mediolateral (ML): ±4.6 mm; Dorsoventral (DV):—7.2 mm). All coordinates were relative to bregma according to a rat brain atlas (Paxinos G, Watson C (1986) THE RAT BRAIN IN STEREOTACTIC COORDINATES (Academic, New York), 2nd Edition). For additional fixation of the implant, two stainless steel screws of 2.6 mm were fastened to the skull. In order to reduce postoperative pain, Carprofen (5 mg/kg Rimadyl, Pfizer) carried by phosphate-buffered saline (Dulbecco's Phophate Buffered Saline (PBS), Life Technologies Ltd) was injected into the head-neck area with an injection volume of 1 mg/kg (0.1 milliliter/kilogram carprofen and 0.9 milliliter/kilogram Phophate Buffered Saline (PBS)). The animals were allowed to recover from surgery for 3 to 6 days before the microdialysis was performed.\nMicrodialysis. Prior the microdialysis process, the animals were anesthetized with Urethane intraperitoneal injection. (1.25 gram/kilogram, Sigma Aldrich). To allow fluid supply (perfusion liquid) (Ringer's solution 0.2 milliliter every 20 minutes) without physical contact with the animal, a catheter was placed into the intraperitoneal cavity. The animal was placed in an acrylic box (45×25×22 centimeter), and the body temperature was monitored and held stable at 36.5±0.5 degrees Celsius by atemperature controller (CMA/150) and a heating pad. The inlet tubes were connected to a microinfusion pump (CMA/100) and were perfused with Ringer's solution containing Neostigmine (10 micromoles) with a flow rate of 2 microliter/minute (perfusate). The fluid rate of the fluid flowing through the probe was thus controlled by the syringe pump. Neostigmine is a cholinesterase inhibitor which was perfused in order to obtain levels of acetylcholine easily detectable with the HPLC method currently available (sensitivity limits 50-100 femtomole/injection). The inhibition of cholinesterase caused continuous occupation of muscarinic presynaptic inhibitory receptors, thereby maintaining an inhibitory tone which controlled acetylcholine release from the cholinergic terminal. de Boer, P. et al., “The effect of acetylcholinesterase inhibition on the release of acetylcholine from the striatum in vivo: interaction with autoreceptor responses,” Neurosci. Lett., 116, 357-360 (1990). The perfusate was designed to have a lower concentration compared to the area surrounding the probe, which ensured that the flow of the flux went into the probe and not the other way around. […]",
  "data": [
    {"smiles": "CC(=O)[C@H]1CC[C@H]2[C@@H]3CC=C4C[C@@H](O)CC[C@]4(C)[C@H]3CC[C@]12C", "note": "[pregnenolone]", "values": [
      {"measurement": "Difference in extracellular release of acetylcholine (ipsilateral vs. contralateral amygdala), t-test p", "setting": "10 min after administration", "value": "−4.024, p = 0.003"},
      {"measurement": "Difference in extracellular release of acetylcholine (ipsilateral vs. contralateral amygdala), t-test p", "setting": "20 min after administration", "value": "−4.383, p = 0.0001"},
      {"measurement": "Difference in extracellular release of acetylcholine (ipsilateral vs. contralateral amygdala), t-test p", "setting": "30 min after administration", "value": "−4.287, p = 0.001"},
      {"measurement": "Difference in extracellular release of acetylcholine (ipsilateral vs. contralateral amygdala), t-test p", "setting": "40 min after administration", "value": "−3.411, p = 0.003."},
      {"measurement": "Difference in extracellular release of acetylcholine (ipsilateral vs. contralateral amygdala), t-test p", "setting": "50 min after administration", "value": "−5.764, p = 0.0001"},
      {"measurement": "Difference in extracellular release of acetylcholine (ipsilateral vs. contralateral amygdala), t-test p", "setting": "60 min after administration", "value": "−4.364, p = 0.001"},
      {"measurement": "Difference in extracellular release of acetylcholine (ipsilateral vs. contralateral amygdala), t-test p", "setting": "70 min after administration", "value": "−3.911, p = 0.001"},
      {"measurement": "Difference in extracellular release of acetylcholine (ipsilateral vs. contralateral amygdala), t-test p", "setting": "80 min after administration", "value": "−3.737, p = 0.002"},
      {"measurement": "Difference in extracellular release of acetylcholine (ipsilateral vs. contralateral amygdala), t-test p", "setting": "90 min after administration", "value": "−3.896, p = 0.003"},
      {"measurement": "Difference in extracellular release of acetylcholine (ipsilateral vs. contralateral amygdala), t-test p", "setting": "100 min after administration", "value": "−4.036, p = 0.001"}
    ]}
  ]
}
